## Library screen at single concentrations

By UniProt entry, the sequences of proteins in these tests, tags left out. Residues count along the entry.
UniProt Q8IDJ8, 1-583: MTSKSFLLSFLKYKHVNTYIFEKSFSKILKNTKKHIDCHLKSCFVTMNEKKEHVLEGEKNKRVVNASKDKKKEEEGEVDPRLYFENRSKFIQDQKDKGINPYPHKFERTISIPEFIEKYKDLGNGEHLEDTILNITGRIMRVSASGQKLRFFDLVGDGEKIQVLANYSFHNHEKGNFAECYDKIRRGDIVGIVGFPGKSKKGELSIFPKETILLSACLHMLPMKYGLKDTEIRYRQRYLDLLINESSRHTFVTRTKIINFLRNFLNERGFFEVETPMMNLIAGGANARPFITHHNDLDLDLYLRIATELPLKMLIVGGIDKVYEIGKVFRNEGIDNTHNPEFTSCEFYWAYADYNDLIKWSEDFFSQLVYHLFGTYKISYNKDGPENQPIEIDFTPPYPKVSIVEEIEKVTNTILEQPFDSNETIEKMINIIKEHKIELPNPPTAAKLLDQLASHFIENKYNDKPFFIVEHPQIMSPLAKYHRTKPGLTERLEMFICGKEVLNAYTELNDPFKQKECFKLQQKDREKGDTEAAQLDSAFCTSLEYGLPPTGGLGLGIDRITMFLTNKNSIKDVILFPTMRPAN
UniProt A4I591, 1-473: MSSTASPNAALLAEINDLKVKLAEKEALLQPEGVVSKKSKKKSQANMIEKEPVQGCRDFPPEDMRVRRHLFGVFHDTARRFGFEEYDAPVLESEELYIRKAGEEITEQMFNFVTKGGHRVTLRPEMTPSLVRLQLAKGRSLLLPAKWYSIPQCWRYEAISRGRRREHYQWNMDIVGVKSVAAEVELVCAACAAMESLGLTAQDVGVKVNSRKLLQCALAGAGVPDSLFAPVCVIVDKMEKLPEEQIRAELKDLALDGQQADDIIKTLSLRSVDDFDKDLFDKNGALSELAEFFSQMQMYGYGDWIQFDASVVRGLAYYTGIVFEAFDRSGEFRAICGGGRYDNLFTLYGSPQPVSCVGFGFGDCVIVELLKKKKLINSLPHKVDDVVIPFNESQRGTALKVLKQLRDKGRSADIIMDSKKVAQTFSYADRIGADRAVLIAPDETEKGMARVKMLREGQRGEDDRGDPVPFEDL
UniProt Q4DA54, 1-478: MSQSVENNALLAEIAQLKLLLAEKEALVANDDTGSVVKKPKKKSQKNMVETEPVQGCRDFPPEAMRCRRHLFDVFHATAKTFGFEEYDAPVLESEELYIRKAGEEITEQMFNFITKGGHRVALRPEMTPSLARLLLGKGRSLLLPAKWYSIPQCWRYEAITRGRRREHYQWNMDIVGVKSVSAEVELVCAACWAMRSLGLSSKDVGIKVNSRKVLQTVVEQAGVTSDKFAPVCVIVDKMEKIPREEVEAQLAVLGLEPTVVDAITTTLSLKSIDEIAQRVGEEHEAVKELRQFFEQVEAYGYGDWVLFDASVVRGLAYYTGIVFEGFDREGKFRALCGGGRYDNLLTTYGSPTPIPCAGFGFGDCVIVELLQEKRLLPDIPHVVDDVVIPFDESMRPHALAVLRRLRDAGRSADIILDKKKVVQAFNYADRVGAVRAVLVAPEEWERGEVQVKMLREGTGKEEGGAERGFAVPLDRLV
UniProt P9WPC5, whole entry: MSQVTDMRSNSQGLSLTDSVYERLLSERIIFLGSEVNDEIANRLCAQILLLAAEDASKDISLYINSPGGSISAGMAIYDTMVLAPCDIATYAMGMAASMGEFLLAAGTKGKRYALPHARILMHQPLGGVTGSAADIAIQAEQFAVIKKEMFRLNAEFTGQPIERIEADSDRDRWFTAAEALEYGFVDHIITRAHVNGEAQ
UniProt P9WPC3, whole entry partner: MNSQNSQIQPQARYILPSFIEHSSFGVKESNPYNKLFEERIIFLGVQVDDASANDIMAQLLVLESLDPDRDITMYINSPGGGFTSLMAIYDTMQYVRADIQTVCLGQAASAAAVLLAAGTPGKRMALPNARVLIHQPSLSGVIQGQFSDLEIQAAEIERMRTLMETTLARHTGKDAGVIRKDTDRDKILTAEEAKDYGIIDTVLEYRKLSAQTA

The filed quantity is “Percent Effect” (%).
How 0% and 100% were set is not recorded. Most values in the screen are low, and negative values occur.
The compounds are a random part of those screened.
Two or more numbers in one place are separate tests of the same structure; such repeats can differ widely.
A dash means the value is not listed here; it may have been measured.

PfKRS1: 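Enzyme assay of the cytosolic lysyl-tRNA synthetase in 384-well plates, read by luminescence. Target: Lysine-tRNA ligase, Plasmodium falciparum 3D7 (UniProt Q8IDJ8). Compounds at 30 µM. Direction is inferred from only a few compounds that gave an IC50; most scored high, so higher reads as stronger inhibition. Size under these conditions: about 69,000 compounds, about 49 of them at 50% or above in at least one test.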
LiHisRS: 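Enzyme assay of histidyl-tRNA synthetase; the read-out is not stated. Target: Histidine-tRNA ligase, Leishmania infantum (UniProt A4I591). Concentration: 30 µM. The record gives no direction; compounds that gave an IC50 in retests scored well above the rest, so higher reads as stronger inhibition. The assay is labelled LdHisRS but filed under L. infantum. About 69,000 compounds were tested under these conditions; 0.6% (about 410) showed 50% or more at least once.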
TcHisRS: 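Histidine-tRNA ligase, Trypanosoma cruzi CL Brener (UniProt Q4DA54). Enzyme assay of histidyl-tRNA synthetase; the read-out is not stated. Tested at 30 µM. Higher reads as stronger inhibition (inferred: compounds with an IC50 in retests scored well above the rest). Of about 69,000 compounds tested this way, about 31 (0.045%) reached 50% or more in at least one test.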
Leishmania in macrophages: 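Cell assay of Leishmania donovani living inside macrophages; the read-out is not stated. Compounds at 30 µM. Higher reads as stronger inhibition (inferred: compounds with an IC50 in retests scored well above the rest). Of about 69,000 compounds tested this way, about 1,000 (1.5%) reached 50% or more in at least one test.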
ClpP1P2: 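ClpP1P2, Mycobacterium tuberculosis (UniProt P9WPC5 and UniProt P9WPC3). Protease assay of ClpP1P2, read by the AMC dye that it sets free. Concentration: 50 µM. Higher reads as stronger inhibition, judged from the few compounds that gave an IC50. Most other retested compounds had strongly negative values. About 69,000 compounds were tested under these conditions; 0.015% (about 10) showed 50% or more at least once.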

| structure | PfKRS1 | LiHisRS | TcHisRS | Leishmania in macrophages | ClpP1P2 |
|---|---|---|---|---|---|
| `Cc1ccc(Oc2cc(F)ccc2O[C@@H]2CCC[C@@H](N)[C@H]2O)cc1` | 6.214 | -1.053 | 8.209 | -1.221 and 10.53 | -11.2 |
| `Cc1cc(C)c(C(=O)NC2CCN(c3ncccc3C#N)CC2)c(=O)[nH]1` | 5.891 | 20.43 | 7.738 | 7.789 | -3.117 |
| `CC(C)COC(=O)N1CC(=O)N(Cc2ccco2)CC(O)C1` (stereo unspecified) | 6.674 | 6.122 | 3.371 | -3.397 | -4.252 |
| `CC1(c2ncc(CN3CCSCC3)cn2)CCCCO1` (stereo unspecified) | 0.8031 | 2.797 | 4.52 | -39.34 | -2.63 |
| `NC(=O)C(Nc1cccc(CO)c1)c1ccc(Br)cc1` (stereo unspecified) | 2.439 | 6.667 | 6.863 | 2.939 | 5.877 |
| `CC(C)C1=NOC(c2nc(Cc3ccccc3)no2)C1` (stereo unspecified) | -0.1679 | 9.524 | -0.5128 | 9.188 | -13.33 |
| `[H][C@@]12CS(=O)(=O)C[C@]1([H])N(C(=O)c1cc(C(C)C)on1)CCN2CC1CC1` | - | - | - | 11.85 | - |
| `COc1cc(C)ccc1OCC(=O)NS(=O)(=O)c1cc(F)ccc1F` | 3.497 | 28.77 | 1.97 | 7.141 | -6.545 |
| `O=C(c1cccs1)N1CCc2ncc(Cn3cncn3)n2CC1` | 1.814 | 16 | 4.902 | 12.51 | -4.585 |
| `CS(=O)(=O)NC[C@]12COC[C@H]1CN(C(=O)C1CCSCC1)C2` | 3.374 | -2.727 | -6.349 | - | -0.7543 |
| `NC(=O)CN(CC(=O)NCc1cccc(Cl)c1)C1CCCC1` | 4.203 | 11.57 | 5.102 | 21.73 | -9.483 |
| `O=C(NCCCn1ccnn1)C1CCCN(C2CCCC2)C1` (stereo unspecified) | 4.744 | 15.25 | 4.39 | -8.893 | -10.38 |
| `O=C(Cc1ccc(O)c(F)c1)N1CCC2(CCNCC2)CC1` | 5.202 | 6.667 | 5.202 | 23.08 | -9.711 |
| `O=C1CCCN1CCCN1CCCC(Cn2cncn2)C1` (stereo unspecified) | 6.969 | 12.33 | 0.9852 | 19.53 | -4.983 |
| `COCC1CN(C(=O)COc2ccccc2C)Cc2ncn(C)c21.O=C(O)C(F)(F)F` (stereo unspecified) | - | - | - | 12.02 | - |
| `O=C1C[C@H]2[C@@H](CCN2C(=O)c2cscn2)N1Cc1cccnc1` | -1.288 | 9.615 | 7.767 | - | -2.405 |
| `Cn1ccc(C(=O)NCC2(O)CCN(c3cnccn3)C2)n1` (stereo unspecified) | 0.1993 | 11.51 | 2.682 | 19.9 | -14.39 |
| `[H][C@]12CCN(C(=O)c3cc[nH]n3)CC[C@@]1([H])S(=O)(=O)N(CC)C2` | - | - | - | 3.381 and 22.5 | - |
| `Cc1cc(OC(F)F)c(C(=O)NCC(O)c2cccc(F)c2)s1` (stereo unspecified) | 8.446 | 5.714 | 2.041 | -1.884 | -10.9 |
| `Cc1cc(C)n(CC2CCN(CC(O)CN3CCOCC3)CC2)n1` (stereo unspecified) | 4.461 | 11.67 | -0.8696 | -0.12 | 6.864 |
| `Cn1cc(CN2CCCC(Cn3cc(CCCO)nn3)C2)cn1` (stereo unspecified) | 5.562 | 2.778 | 6.122 | -1.414 | -8.134 |
| `O=C1CC(C(=O)Nc2nnc(-c3ccoc3)[nH]2)c2ccccc2N1` (stereo unspecified) | -3.852 | 11.43 | 2.041 | 11.55 | -1.695 |

The first 3 entries again:

structure	PfKRS1	LiHisRS	TcHisRS	Leishmania in macrophages	ClpP1P2
Cc1ccc(Oc2cc(F)ccc2O[C@@H]2CCC[C@@H](N)[C@H]2O)cc1	6.214	-1.053	8.209	-1.221 and 10.53	-11.2
Cc1cc(C)c(C(=O)NC2CCN(c3ncccc3C#N)CC2)c(=O)[nH]1	5.891	20.43	7.738	7.789	-3.117
CC(C)COC(=O)N1CC(=O)N(Cc2ccco2)CC(O)C1 (stereo unspecified)	6.674	6.122	3.371	-3.397	-4.252

Measurements from “University of Dundee, Small-Polar-MMV Screening Library” (2021), ChEMBL document CHEMBL3988442.